Patent publication US4033721A, “Analysis of gentian violet residue in tissue” (priority 1976, dated 1977)
Values joined by “and” are separate entries in the source; they are usually repeats but may differ in a detail not shown here. Identical values can stand only once. The source gives many values for each of these; only a part stands here.

Test: Spectrophotometric determination of gentian violet residue in livers of chickens fed gentian violet (Examples 2 to 24)
Assay type: in vivo
Details: chicken liver, feed 35 ppm for 56 days, 48 hours after final dose; 2880 min
Experimental: This example involves the spectrophotometrical determination of the gentian violet content (as a residue) of poultry tissue.
An acid alcohol solution was prepared by adding 20 ml of concentrated hydrochloric acid to 2,000 ml of 95 percent ethyl alcohol (denatured).
A gentian violet stock solution was prepared as follows: Using the Ainsworth chainomatic analytical balance, 0.104 gm of crystalline gentian violet (USP) was accurately weighed out and quantitatively transferred to a 1000 ml volumetric flask and q.s. to 1000 ml with distilled water. A magnetic stirring bar was inserted into the flask and the gentian violet solution was mixed on a magnetic mixer for 1 hour. This solution contained 100 ug of gentian violet per ml (100 ppm).
Gentian violet-acid alcohol standard solutions were prepared as follows: Five standard dilutions of gentian violet in acid alcohol were prepared and the absorbence (O.D.) for each dilution was determined. […]
The spectrophotometer was set at 590 mμ and zeroed using an acid alcohol blank. The absorbence of the 5 standard dilutions in the 13 mm cuvette was determined. The O.D. of the 1 ppm dilution in the 13 mm cuvette was recorded for use in calculation of the gentian violet recovery. (If method sensitivity below 0.1 ppm is desired, the O.D. of the 1 ppm standard in the 100 mm cell is recorded and the Beckman D.U. is used to make the determinations.) […]

With CN(C)c1ccc(C(=C2C=CC(=[N+](C)C)C=C2)c2ccc(N(C)C)cc2)cc1 [gentian violet, hexamethylpararosaniline chloride] the “p.p.m. of Gentian Violet in liver” value was 0.36 p.p.m. and 0.24 p.p.m.
